Test results published in patent US20100093064A1, “Metagenomic Functional Selection” (PRESIDENT AND FELLOWS OF HARVARD COLLEGE, priority 2008, published 2010).

tested on: soil bacteria; assay type: cell-based; conditions: antibiotic as sole carbon source at 1 g/L, 11 soils

Compound	Soils yielding clonal isolates able to subsist on the antibiotic
Cc1onc(-c2c(Cl)cccc2Cl)c1C(=O)N[C@@H]1C(=O)N2[C@@H]1SC(C)(C)[C@@H]2C(=O)O [dicloxacillin]	9 out of 11 soils
CCn1cc(C(=O)O)c(=O)c2ccc(C)nc21 [nalidixic acid]	a majority of the soils
CC1(C)S[C@@H]2[C@H](NC(=O)C(C(=O)O)c3ccccc3)C(=O)N2[C@H]1C(=O)O (stereo partly shown) [carbenicillin]	all the soils tested
CC1(C)S[C@@H]2[C@H](NC(=O)Cc3ccccc3)C(=O)N2[C@H]1C(=O)O [penicillin, penicillin G]	all the soils tested
